Reference: PMC7606486, “CFAP45 deficiency causes situs abnormalities and asthenospermia by disrupting an axonemal adenine nucleotide homeostasis module” (Nature Communications, 2020)
These are yes or no findings as the source states them, for the method shown. Binding seen in cells or lysates may run through a third protein. Here binding means that the protein was enriched with, or labelled near, the bait; the list need not be complete. Sequences can lack the tags named with a protein.

By UniProt entry, the sequences of proteins in these tests, tags left out. Where a name states a change or a piece, a line headed by the entry shows the natural chain unless it says otherwise.
UniProt A0A286ZPL5: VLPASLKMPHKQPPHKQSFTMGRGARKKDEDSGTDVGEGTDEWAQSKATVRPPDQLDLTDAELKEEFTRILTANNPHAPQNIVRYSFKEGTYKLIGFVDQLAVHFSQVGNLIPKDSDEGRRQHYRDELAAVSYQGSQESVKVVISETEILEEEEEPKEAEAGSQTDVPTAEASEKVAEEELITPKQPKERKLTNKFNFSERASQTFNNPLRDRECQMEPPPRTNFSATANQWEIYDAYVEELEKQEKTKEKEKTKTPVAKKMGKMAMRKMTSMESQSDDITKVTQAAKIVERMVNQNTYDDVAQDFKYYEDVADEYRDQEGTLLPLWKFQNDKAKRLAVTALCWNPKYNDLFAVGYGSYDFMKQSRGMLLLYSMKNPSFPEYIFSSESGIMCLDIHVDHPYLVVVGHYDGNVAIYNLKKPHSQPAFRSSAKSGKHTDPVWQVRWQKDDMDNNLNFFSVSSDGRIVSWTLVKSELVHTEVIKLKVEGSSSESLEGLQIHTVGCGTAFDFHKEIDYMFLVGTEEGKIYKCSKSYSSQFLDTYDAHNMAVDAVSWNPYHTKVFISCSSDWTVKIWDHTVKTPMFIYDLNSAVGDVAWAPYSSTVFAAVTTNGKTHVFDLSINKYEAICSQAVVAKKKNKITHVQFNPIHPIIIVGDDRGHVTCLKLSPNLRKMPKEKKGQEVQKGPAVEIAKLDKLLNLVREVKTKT
UniProt A0A4X1T4U3: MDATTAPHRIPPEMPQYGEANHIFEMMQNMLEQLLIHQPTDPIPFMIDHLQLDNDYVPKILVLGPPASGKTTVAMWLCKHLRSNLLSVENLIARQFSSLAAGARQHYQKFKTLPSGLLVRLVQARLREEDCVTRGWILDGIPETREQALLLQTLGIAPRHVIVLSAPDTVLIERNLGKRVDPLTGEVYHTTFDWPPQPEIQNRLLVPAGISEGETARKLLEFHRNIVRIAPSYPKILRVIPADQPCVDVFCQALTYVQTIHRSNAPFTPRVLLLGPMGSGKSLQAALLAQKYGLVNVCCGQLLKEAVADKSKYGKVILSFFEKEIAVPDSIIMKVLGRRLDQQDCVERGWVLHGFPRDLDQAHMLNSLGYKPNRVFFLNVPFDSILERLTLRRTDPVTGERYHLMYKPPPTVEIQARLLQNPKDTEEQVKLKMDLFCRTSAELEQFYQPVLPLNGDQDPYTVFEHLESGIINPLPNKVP
UniProt F1RKB1: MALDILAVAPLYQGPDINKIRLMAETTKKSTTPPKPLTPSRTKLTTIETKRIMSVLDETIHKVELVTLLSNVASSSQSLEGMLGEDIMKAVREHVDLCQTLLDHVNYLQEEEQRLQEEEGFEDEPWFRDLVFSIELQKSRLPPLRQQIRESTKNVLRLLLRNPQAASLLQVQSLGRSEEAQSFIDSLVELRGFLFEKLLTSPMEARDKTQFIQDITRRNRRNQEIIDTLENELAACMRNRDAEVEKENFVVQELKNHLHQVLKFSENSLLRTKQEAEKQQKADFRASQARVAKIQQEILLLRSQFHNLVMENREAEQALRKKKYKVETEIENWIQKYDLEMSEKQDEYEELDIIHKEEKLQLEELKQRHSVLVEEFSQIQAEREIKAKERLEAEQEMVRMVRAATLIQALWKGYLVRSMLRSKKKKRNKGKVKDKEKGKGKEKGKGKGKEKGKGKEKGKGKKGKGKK

target: T1, CFAP52 (cilia and flagella associated protein 52), native porcine (pig (endogenous in porcine respiratory cells)) (UniProt F1SS88); test: affinity purification with mass spectrometry; native CFAP52 immunoprecipitates of isolated porcine respiratory cells (PRC) analysed by MS; three independent experiments
T1 sequence: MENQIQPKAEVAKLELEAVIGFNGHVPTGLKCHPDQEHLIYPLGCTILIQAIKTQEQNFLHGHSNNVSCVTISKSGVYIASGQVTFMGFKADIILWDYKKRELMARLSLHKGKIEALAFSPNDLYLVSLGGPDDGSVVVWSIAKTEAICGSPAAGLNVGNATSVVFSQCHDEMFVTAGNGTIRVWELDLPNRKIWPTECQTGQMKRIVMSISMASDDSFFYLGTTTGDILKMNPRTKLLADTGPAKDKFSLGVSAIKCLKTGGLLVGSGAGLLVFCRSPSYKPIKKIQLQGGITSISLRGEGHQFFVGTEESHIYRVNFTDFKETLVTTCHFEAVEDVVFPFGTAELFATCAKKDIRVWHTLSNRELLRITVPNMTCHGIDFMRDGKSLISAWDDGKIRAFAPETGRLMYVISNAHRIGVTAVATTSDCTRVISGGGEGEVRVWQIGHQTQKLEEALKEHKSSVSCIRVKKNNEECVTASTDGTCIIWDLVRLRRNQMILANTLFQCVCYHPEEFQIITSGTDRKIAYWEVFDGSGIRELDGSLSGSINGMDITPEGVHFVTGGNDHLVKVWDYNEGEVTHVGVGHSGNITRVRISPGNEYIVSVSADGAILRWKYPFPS

binding, binds:
DNAI1, native porcine (from UniProt A0A286ZPL5 1-704)
adenylate kinase 8 (AK8), native porcine (from UniProt A0A4X1T4U3 1-479) (enzyme)
dynein regulatory complex protein IQCD, native porcine (from UniProt F1RKB1)
